Changes are numbered by the printed parent chain. The list shows a part of the results. For some of these results: At the low end of the ranking, values are background and their order means little.
Experiments:
Conditions in all cases: yeast three-hybrid, YBZ-1, SC-Leu-His + 0.5 mM 3-AT, 4 days
[1] = molecular target: T1, PUM1 PUF domain R1-QFR R2-VFQ R7-NPG S863Q + R864F + Q867R + N899V + Y900F + S1079N + N1080P + E1083G (UniProt Q14671)
T1 sequence: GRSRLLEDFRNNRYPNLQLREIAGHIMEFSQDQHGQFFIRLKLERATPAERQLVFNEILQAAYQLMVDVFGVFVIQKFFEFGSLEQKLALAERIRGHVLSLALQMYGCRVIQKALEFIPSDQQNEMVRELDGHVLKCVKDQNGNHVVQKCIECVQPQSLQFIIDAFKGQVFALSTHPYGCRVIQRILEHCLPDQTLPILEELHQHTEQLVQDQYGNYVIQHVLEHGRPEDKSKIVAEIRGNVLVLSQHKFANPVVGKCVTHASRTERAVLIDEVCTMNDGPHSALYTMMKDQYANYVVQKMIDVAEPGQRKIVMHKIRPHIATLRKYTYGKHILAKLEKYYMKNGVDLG

[2] = molecular target: T2, PUM1 PUF domain R6-SWD R7-NPG N1043S + Y1044W + Q1047D + S1079N + N1080P + E1083G (Homo sapiens) (UniProt Q14671)
T2 sequence: T1 sequence with Q36S, F37R, R40Q, V72N, F73Y, N216S, Y217W, Q220D

[3] = molecular target: T3, PUM1 PUF domain R2-VFQ R3-THE R4-TFR N899V + Y900F + C935T + R936H + Q939E + N971T + H972F + Q975R (UniProt Q14671)
T3 sequence: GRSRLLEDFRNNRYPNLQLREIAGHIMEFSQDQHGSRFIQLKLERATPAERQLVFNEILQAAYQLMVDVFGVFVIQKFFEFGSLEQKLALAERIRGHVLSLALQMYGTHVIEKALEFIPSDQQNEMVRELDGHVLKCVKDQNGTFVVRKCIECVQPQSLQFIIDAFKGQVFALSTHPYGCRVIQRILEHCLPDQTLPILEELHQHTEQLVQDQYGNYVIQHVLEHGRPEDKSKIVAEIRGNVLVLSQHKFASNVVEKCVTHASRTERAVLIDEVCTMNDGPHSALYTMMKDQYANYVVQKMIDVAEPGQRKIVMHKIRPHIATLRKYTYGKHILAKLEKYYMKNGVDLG

[4] = molecular target: T4, PUM1 PUF domain R2-ARP N899A + Y900R + Q903P (Homo sapiens) (UniProt Q14671)
T4 sequence: T1 sequence with Q36S, F37R, R40Q, V72A, F73R, Q76P, N252S, P253N, G256E

[5] = molecular target: T5, PUM1 PUF domain R2-AWS N899A + Y900W + Q903S (UniProt Q14671)
T5 sequence: T1 sequence with Q36S, F37R, R40Q, V72A, F73W, Q76S, N252S, P253N, G256E

[6] = molecular target: T6, PUM1 PUF domain R2-AYW N899A + Q903W (UniProt Q14671)
T6 sequence: T1 sequence with Q36S, F37R, R40Q, V72A, F73Y, Q76W, N252S, P253N, G256E

[7] = molecular target: T7, PUM1 PUF domain R2-CWP N899C + Y900W + Q903P (Homo sapiens) (UniProt Q14671)
T7 sequence: T1 sequence with Q36S, F37R, R40Q, V72C, F73W, Q76P, N252S, P253N, G256E

[8] = molecular target: T8, PUM1 PUF domain R2-DWC N899D + Y900W + Q903C (UniProt Q14671)
T8 sequence: T1 sequence with Q36S, F37R, R40Q, V72D, F73W, Q76C, N252S, P253N, G256E

[9] = molecular target: T9, PUM1 PUF domain R2-DWL N899D + Y900W + Q903L (UniProt Q14671)
T9 sequence: T1 sequence with Q36S, F37R, R40Q, V72D, F73W, Q76L, N252S, P253N, G256E

[10] = molecular target: T10, PUM1 PUF domain R2-FWW N899F + Y900W + Q903W (UniProt Q14671)
T10 sequence: T1 sequence with Q36S, F37R, R40Q, V72F, F73W, Q76W, N252S, P253N, G256E

[11] = molecular target: T11, PUM1 PUF domain R2-GWF N899G + Y900W + Q903F (Homo sapiens) (UniProt Q14671)
T11 sequence: T1 sequence with Q36S, F37R, R40Q, V72G, F73W, Q76F, N252S, P253N, G256E

[12] = molecular target: T12, PUM1 PUF domain R2-GWY N899G + Y900W + Q903Y (Homo sapiens) (UniProt Q14671)
T12 sequence: T1 sequence with Q36S, F37R, R40Q, V72G, F73W, Q76Y, N252S, P253N, G256E

[13] = molecular target: T13, PUM1 PUF domain R2-KFG N899K + Y900F + Q903G (Homo sapiens) (UniProt Q14671)
T13 sequence: T1 sequence with Q36S, F37R, R40Q, V72K, Q76G, N252S, P253N, G256E

[14] = molecular target: T14, PUM1 PUF domain R2-LFA N899L + Y900F + Q903A (UniProt Q14671)
T14 sequence: T1 sequence with Q36S, F37R, R40Q, V72L, Q76A, N252S, P253N, G256E

[15] = molecular target: T15, PUM1 PUF domain R2-LFC N899L + Y900F + Q903C (Homo sapiens) (UniProt Q14671)
T15 sequence: T1 sequence with Q36S, F37R, R40Q, V72L, Q76C, N252S, P253N, G256E

[16] = molecular target: T16, PUM1 PUF domain R2-LFI N899L + Y900F + Q903I (UniProt Q14671)
T16 sequence: T1 sequence with Q36S, F37R, R40Q, V72L, Q76I, N252S, P253N, G256E

[17] = molecular target: T17, PUM1 PUF domain R2-LFL N899L + Y900F + Q903L (Homo sapiens) (UniProt Q14671)
T17 sequence: T1 sequence with Q36S, F37R, R40Q, V72L, Q76L, N252S, P253N, G256E

[18] = molecular target: T18, PUM1 PUF domain R2-LFS N899L + Y900F + Q903S (Homo sapiens) (UniProt Q14671)
T18 sequence: T1 sequence with Q36S, F37R, R40Q, V72L, Q76S, N252S, P253N, G256E

[19] = molecular target: T19, PUM1 PUF domain R2-LFV N899L + Y900F + Q903V (Homo sapiens) (UniProt Q14671)
T19 sequence: T1 sequence with Q36S, F37R, R40Q, V72L, Q76V, N252S, P253N, G256E

[20] = molecular target: T20, PUM1 PUF domain R2-LWD N899L + Y900W + Q903D (Homo sapiens) (UniProt Q14671)
T20 sequence: T1 sequence with Q36S, F37R, R40Q, V72L, F73W, Q76D, N252S, P253N, G256E

[21] = molecular target: T21, PUM1 PUF domain R2-LWF N899L + Y900W + Q903F (Homo sapiens) (UniProt Q14671)
T21 sequence: T1 sequence with Q36S, F37R, R40Q, V72L, F73W, Q76F, N252S, P253N, G256E

[22] = molecular target: T22, PUM1 PUF domain R2-LWM N899L + Y900W + Q903M (Homo sapiens) (UniProt Q14671)
T22 sequence: T1 sequence with Q36S, F37R, R40Q, V72L, F73W, Q76M, N252S, P253N, G256E

[23] = molecular target: T23, PUM1 PUF domain R2-LWY N899L + Y900W + Q903Y (UniProt Q14671)
T23 sequence: T1 sequence with Q36S, F37R, R40Q, V72L, F73W, Q76Y, N252S, P253N, G256E

[24] = molecular target: T24, PUM1 PUF domain R2-NRG Y900R + Q903G (UniProt Q14671)
T24 sequence: T1 sequence with Q36S, F37R, R40Q, V72N, F73R, Q76G, N252S, P253N, G256E

[25] = molecular target: T25, PUM1 PUF domain R2-NRW Y900R + Q903W (UniProt Q14671)
T25 sequence: T1 sequence with Q36S, F37R, R40Q, V72N, F73R, Q76W, N252S, P253N, G256E

[26] = molecular target: T26, PUM1 PUF domain R2-RTQ N899R + Y900T (Homo sapiens) (UniProt Q14671)
T26 sequence: T1 sequence with Q36S, F37R, R40Q, V72R, F73T, N252S, P253N, G256E

[27] = molecular target: T27, PUM1 PUF domain R2-SWW N899S + Y900W + Q903W (UniProt Q14671)
T27 sequence: T1 sequence with Q36S, F37R, R40Q, V72S, F73W, Q76W, N252S, P253N, G256E

[28] = molecular target: T28, PUM1 PUF domain R2-TFG N899T + Y900F + Q903G (UniProt Q14671)
T28 sequence: T1 sequence with Q36S, F37R, R40Q, V72T, Q76G, N252S, P253N, G256E

[29] = molecular target: T29, PUM1 PUF domain R2-VFR N899V + Y900F + Q903R (UniProt Q14671)
T29 sequence: T1 sequence with Q36S, F37R, R40Q, Q76R, N252S, P253N, G256E

[30] = molecular target: T30, PUM1 PUF domain R2-VWP N899V + Y900W + Q903P (Homo sapiens) (UniProt Q14671)
T30 sequence: T1 sequence with Q36S, F37R, R40Q, F73W, Q76P, N252S, P253N, G256E

[31] = molecular target: T31, PUM1 PUF domain R2-VWW N899V + Y900W + Q903W (Homo sapiens) (UniProt Q14671)
T31 sequence: T1 sequence with Q36S, F37R, R40Q, F73W, Q76W, N252S, P253N, G256E

[32] = molecular target: T32, PUM1 PUF domain R2-VYP N899V + Q903P (UniProt Q14671)
T32 sequence: T1 sequence with Q36S, F37R, R40Q, F73Y, Q76P, N252S, P253N, G256E

GGCUAGAACUAGUGGAUCCCCCGGCGCCCGGCGGCUCGAGCCCGGGUAAGUUGUCCUCGUCUGCAUGCCGCCGGGCGCCAUGCCUGCAGGUCGACUCUAGAAAACAUG
binding signal (log2 enrichment (interaction score)) [1]: -5.88
binding signal (log2 enrichment (interaction score)) [2]: -1.78

GGCUAGAACUAGUGGAUCCCCCGGCGCCCGGCGGCUCGAGCCCGGGUAAGCUUGAGUAGUCUGCAUGCCGCCGGGCGCCAUGCCUGCAGGUCGACUCUAGAAAACAUG
binding signal (log2 enrichment (interaction score)) [3]: < -5.91

GGCUAGAACUAGUGGAUCCCCCGGCGCCCGGCGGCUCGAGCCCGGGUAAGCGUACCAGGUCUGCAUGCCGCCGGGCGCCAUGCCUGCAGGUCGACUCUAGAAAACAUG
binding signal (log2 enrichment (interaction score)) [3]: -4.46

GGCUAGAACUAGUGGAUCCCCCGGCGCCCGGCGGCUCGAGCCCGGGUAAGGUGAUACAGUCUGCAUGCCGCCGGGCGCCAUGCCUGCAGGUCGACUCUAGAAAACAUG
binding signal (log2 enrichment (interaction score)) [3]: -4.64

GGCUAGAACUAGUGGAUCCCCCGGCGCCCGGCGGCUCGAGCCCGGGUAAGUGUAAAGAGUCUGCAUGCCGCCGGGCGCCAUGCCUGCAGGUCGACUCUAGAAAACAUG
binding signal (log2 enrichment (interaction score)) [4]: -1.44
binding signal (log2 enrichment (interaction score)) [5]: < -7.71
binding signal (log2 enrichment (interaction score)) [6]: < -8.03
binding signal (log2 enrichment (interaction score)) [7]: -0.53
binding signal (log2 enrichment (interaction score)) [8]: < -6.39
binding signal (log2 enrichment (interaction score)) [9]: < -6.68
binding signal (log2 enrichment (interaction score)) [10]: < -5.79
binding signal (log2 enrichment (interaction score)) [11]: -0.55
binding signal (log2 enrichment (interaction score)) [12]: -0.78
binding signal (log2 enrichment (interaction score)) [13]: -4.2
binding signal (log2 enrichment (interaction score)) [14]: -8.08
binding signal (log2 enrichment (interaction score)) [15]: -0.35
binding signal (log2 enrichment (interaction score)) [16]: < -5.87
binding signal (log2 enrichment (interaction score)) [17]: 0.08
binding signal (log2 enrichment (interaction score)) [18]: -0.42
binding signal (log2 enrichment (interaction score)) [19]: -2.82
binding signal (log2 enrichment (interaction score)) [20]: 1.03
binding signal (log2 enrichment (interaction score)) [21]: -3.98
binding signal (log2 enrichment (interaction score)) [22]: < -5.75
binding signal (log2 enrichment (interaction score)) [23]: < -6.17
binding signal (log2 enrichment (interaction score)) [24]: < -6.59
binding signal (log2 enrichment (interaction score)) [25]: < -5.95
binding signal (log2 enrichment (interaction score)) [26]: -3.93
binding signal (log2 enrichment (interaction score)) [27]: < -6.3
binding signal (log2 enrichment (interaction score)) [28]: < -6.41
binding signal (log2 enrichment (interaction score)) [29]: < -7
binding signal (log2 enrichment (interaction score)) [30]: -2.51
binding signal (log2 enrichment (interaction score)) [31]: -4.8
binding signal (log2 enrichment (interaction score)) [32]: < -7.52
